Publication PMC9508122

By UniProt entry, the sequences of proteins in these tests, tags left out.
UniProt Q99873: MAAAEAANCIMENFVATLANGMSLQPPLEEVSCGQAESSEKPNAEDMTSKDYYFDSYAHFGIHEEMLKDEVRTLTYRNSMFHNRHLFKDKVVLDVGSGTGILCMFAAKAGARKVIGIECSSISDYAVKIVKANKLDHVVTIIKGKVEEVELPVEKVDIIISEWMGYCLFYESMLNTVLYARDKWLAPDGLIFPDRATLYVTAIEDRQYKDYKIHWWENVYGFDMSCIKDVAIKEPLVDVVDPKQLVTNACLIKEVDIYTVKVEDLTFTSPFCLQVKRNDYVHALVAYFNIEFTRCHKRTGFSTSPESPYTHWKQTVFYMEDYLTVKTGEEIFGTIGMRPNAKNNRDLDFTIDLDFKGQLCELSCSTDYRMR

Molecular target: T1, TIPE1-3×FLAG (tumor necrosis factor alpha-induced protein 8-like protein 1) (UniProt Q8WVP5)
T1 sequence: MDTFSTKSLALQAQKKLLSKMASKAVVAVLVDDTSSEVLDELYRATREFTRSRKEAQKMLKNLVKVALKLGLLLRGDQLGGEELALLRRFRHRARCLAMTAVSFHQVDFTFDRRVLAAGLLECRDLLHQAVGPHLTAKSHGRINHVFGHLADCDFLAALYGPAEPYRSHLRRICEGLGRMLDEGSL
Test: affinity purification with mass spectrometry; lysate of MNNG/HOS Cl #5 cells 48 h after TIPE1-3×FLAG lentivirus; FLAG-conjugated beads, washed 8 times with RIPA buffer, eluted with 3×FLAG peptide; SDS-PAGE bands analysed by LC-MS/MS; control without TIPE1-3×FLAG

With “Protein arginine N-methyltransferase 1 (PRMT1), endogenous (from UniProt Q99873 1-371) (enzyme)” the binding was “binds”.

Results are given in words; binding and its absence hold for the method and conditions named. In cells and extracts the contact can be indirect. These calls come from enrichment with a bait or labelling near it, and not all partners need be listed. Sequences can lack the tags named with a protein.
